# Measurements reported in PubChem BioAssay AID602196 (INSERM, 2012)
# Aim: 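Modifiers of cisplatin sensitivity in A549 cells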
# Cells: human A549 lung cancer cells
# Knock-down reagent: siRNA pair against human genes
# Timing: 48 h transfection before cisplatin; time from cisplatin to read-out not stated
# Treatment: cisplatin at a dose killing half of control-siRNA cells; exact dose and duration not given
# Detection: 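Shift in cisplatin death relative to control siRNA, from -50 (all cells die) to +50 (no cells die); siRNAs harmful on their own scored 0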
# Direction: two-siRNA summed score (-2 to +2): higher = both siRNAs protect from cisplatin killing; -2 means both sensitise; mean protection from cisplatin (shift in death) and protection from cisplatin (shift in death), siRNA C and protection from cisplatin (shift in death), siRNA D: higher = protection from cisplatin killing
# Hit rule: 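siRNAs harmful alone (LDH or WST-1) get 0; others get +1 for less and -1 for more cisplatin killing; genes are active when the two siRNAs give the same sign, summing to ±2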
# Meaning of the calls: active = both siRNAs shift cisplatin killing the same way; inactive = no consistent shift, or siRNA harmful alone
# The deposit covers about 23,000 reagents; this is a part drawn at random. 455 of all reagents (2%) were called active. 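Active includes both protection and sensitisation; some change values fall well beyond the stated -50 to +50 range.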 A number with no mark means an inactive call. Not stated in the record: the amount of reagent.
target gene,two-siRNA summed score (-2 to +2),mean protection from cisplatin (shift in death) (%),"protection from cisplatin (shift in death), siRNA C (%)","protection from cisplatin (shift in death), siRNA D (%)"
LOC387872,0,13.2,13.7,12.6
MALL,1,7.6,-5.7,20.9
GASAL1,0,6.6,9.6,3.5
LOC441619,0,-0.4,-0.9,0.1
NOVA2,-1,-6.4,-17.5,4.7
PAXIP1,0,2.7,8.4,-3.1
ASAH2,0,-1.7,2.7,-6
FUZ,0,-12.1,-16.8,-7.4
LOC390916,1,8.8,8.6,8.9
ALG8,0,2.3,-1.5,6.2
C9orf57,0,10.5,15.6,5.4
LOC285961,0,7.7,3.1,12.3
ZMYM3,-1,-5.7,8.4,-19.8
GPATCH2,0,4.5,11.3,-2.3
SLC34A1,-1,-7.8,-28.4,12.8
FNBP4,0,5.3,12.5,-2
GDAP1,1,9.3,-9.3,28
CLEC4A,0,-10.1,-8.7,-11.5
TMEM183A,0,-12.1,6.1,-30.4
KCNH4,0,-4.8,2.8,-12.4
COX10,2 (active),19.4,19.2,19.5
LOC340156,-1,-3.6,8.4,-15.5
OAS2,0,1.4,-5.2,8
DNAJC9,1,10.2,9.4,11.1
DKFZp779O175,0,-3.7,5.3,-12.6
CKAP5,0,3.5,2.4,4.6
LOC401640,1,11.4,11.1,11.6
DAZ4,1,14.4,13.8,15.1
WT1-AS,0,8.5,12.3,4.7
CETN2,0,9.1,9,9.1
CAPN13,1,5.2,9,1.3
LOC392238,0,13.6,10.8,16.4
RPS12,0,20.9,17.5,24.4
RAB44,0,5.5,-6.1,17.1
CXCL12,0,-4.2,14.8,-23.3
ACTN4,0,3.5,16.2,-9.2
LOC344471,0,13.9,27.7,0.1
GEMIN7,0,8.8,3.5,14.1
RAB39A,0,1,14.8,-12.8
LTB,0,2.7,1.6,3.9
LOC387754,1,9,5.2,12.8
NKPD1,0,10.6,5.2,16.1
LOC441921,0,29.1,6.5,51.7
PDC,0,6.8,4.5,9.2
CD274,-1,-22.2,-14.4,-30
MAPK12,0,12.2,13.8,10.6
NFKBIE,0,-16,-34.1,2.2
LRRC37A6P,1,25.2,17.2,33.2
MOGAT1,0,9.7,3.1,16.2
MROH2B,0,4.1,10.6,-2.3
MED4,0,14.6,18.3,10.9
PLSCR4,-1,-10.6,-1,-20.2
LOC441700,0,10.7,8.5,12.9
LOC389393,1,13.4,11.3,15.4
MPEG1,1,9,3.5,14.4
HDHD2,0,-1.7,5.6,-9
ZNF449,1,15.1,9.9,20.3

Reagents listed above marked active:
target gene,two-siRNA summed score (-2 to +2),mean protection from cisplatin (shift in death) (%),"protection from cisplatin (shift in death), siRNA C (%)","protection from cisplatin (shift in death), siRNA D (%)"
COX10,2 (active),19.4,19.2,19.5
